According to PubChem BioAssay AID2551 (National Center for Advancing Translational Sciences (NCATS), 2010):
Out of some 310,000 compounds screened, about 17,000 (5.5%) were called active. This list was built around the results that the source calls inconclusive (neither active nor inactive); the mix of calls is not that of the screen. Calls follow the shape of the dose curve; as a rule, active = well fitted inhibition curve with a large enough effect; inconclusive = small, poorly fitted or top-dose-only effect, or effect the other way; inactive = no such curve, though single readings can be large or run the other way. Where the call is inconclusive, the potency comes from a doubtful curve fit.

Chains of the proteins cited; added tags and fusions are not shown. Lines headed by an entry give the natural chain unless they say otherwise; changes in a name come on top.
UniProt P51450: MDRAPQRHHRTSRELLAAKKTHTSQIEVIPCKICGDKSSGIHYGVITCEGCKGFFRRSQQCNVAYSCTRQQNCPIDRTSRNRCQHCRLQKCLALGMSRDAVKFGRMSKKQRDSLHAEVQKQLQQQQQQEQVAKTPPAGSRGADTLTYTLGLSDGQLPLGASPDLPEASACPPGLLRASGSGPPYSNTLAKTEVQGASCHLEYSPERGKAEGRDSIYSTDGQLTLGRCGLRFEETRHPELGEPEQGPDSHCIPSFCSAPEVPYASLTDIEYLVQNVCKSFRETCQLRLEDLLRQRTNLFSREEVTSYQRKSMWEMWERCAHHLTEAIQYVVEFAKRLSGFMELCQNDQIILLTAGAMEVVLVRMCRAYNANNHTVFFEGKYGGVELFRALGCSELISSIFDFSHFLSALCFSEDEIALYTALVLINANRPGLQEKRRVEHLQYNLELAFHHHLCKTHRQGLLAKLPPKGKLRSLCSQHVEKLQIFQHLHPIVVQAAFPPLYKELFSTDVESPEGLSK

Each compound was assayed against Nuclear receptor ROR-gamma (Mus musculus) (UniProt P51450) (assay: qHTS for inhibitors of ROR gamma transcriptional activity). Details: Drosophila S2 Gal4-RORgamma UAS-luciferase reporter, 20 h; activity change, negative = inhibition: at 53.6 µM (top of the series).
Outline: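 Compounds are pin-transferred onto Drosophila Schneider cells expressing a copper-inducible Gal4–ROR gamma transactivation domain fusion. After 1 hr, copper sulfate is added to 700 uM final; luciferase is read 20 hr later.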
% is scaled to controls: 0 for no effect and ±100 for the full control effect; potency is read from the fitted curve at half-maximal effect.
Also: nearly all actives have a fitted effect of over 60% in size.

Activity change, negative = inhibition, inactive:
COc1cccc(-c2nc(NCCc3c[nH]c4ccc(OC)cc34)c3ccccc3n2)c1 9.73%, CC1CC(C)CN(S(=O)(=O)c2cccc3nonc23)C1 (stereo not given) -6.89%, O=C(CC(Nc1ccccc1)c1ccc(F)cc1)c1ccccc1 (stereo not given) 10.6%, COCCCNC(=O)CN1C(=O)COc2ccc(S(=O)(=O)N3CC(C)CC(C)C3)cc21 (stereo not given) -25%, CN(C)CCCNC(=O)/C(=N\O)c1ccccc1 -20.1%, CCOc1ccccc1NC(=O)CN(c1ccc(C)cc1)S(=O)(=O)c1c(C)n[nH]c1C 9.25%, Cc1cc(C)c2nc3s/c(=C/c4ccc5c(c4)n(C)c(=O)n5C)c(=O)n3c2c1 5.37%, N#CC1=C(N)Oc2cc(N)ccc2C1c1ccc(Cl)cc1 (stereo not given) -9.45%, CC(=O)Nc1ccc(Nc2ncnc3c2cnn3-c2ccccc2)cc1 23.7%, COc1ccc(S(=O)(=O)/N=C2/NC(=O)/C(=C\c3cc(OC)c(OC)cc3[N+](=O)[O-])S2)cc1 -8.46%, Cn1ncc([N+](=O)[O-])c1C(=O)Nc1cccc2ccccc12 3.05%, C=CCN(CC=C)S(=O)(=O)c1ccc(NC(=S)NC(=O)c2ccco2)cc1 0%, CN(C)CCN(C(=O)c1ccc(Br)s1)c1nc2cc3c(cc2s1)OCCO3 10.8%, COCCNCCCCSc1ccc(Cl)cc1 0.047%, COc1cc2c(C#N)c(N3CCN(c4ccccc4OC)CC3)nc(N)c2c(N)n1 -19.4%, CCOc1ccc(S(=O)(=O)NC(C)C(=O)NCc2cccnc2)cc1 (stereo not given) 0.498%, O=C(CN1C(=O)c2ccccc2C1=O)NCCc1c[nH]c2ccc(Cl)cc12 39.5%, Cn1nc(C(F)(F)F)c2cc(NC(=O)OCc3ccc(C(C)(C)C)cc3)sc21 24.8%, O=C1CC(c2ccccc2O)Oc2ccc(O)cc21 (stereo not given) 14%, CCOC(=O)c1c2n(c3ccc(OC(C)=O)cc13)CCC2 6.57%, O=C1C(Nc2ccccc2)=C(NS(=O)(=O)c2ccccc2)C(=O)c2ccccc21 -36.1%

Potency, active:
CC(C)(C)c1cc(NCc2ccccn2)n2ncc(-c3ccccc3)c2n1 0.447 µM, c1ccc(-c2nc3ccccn3c2NCc2ccc3c(c2)OCO3)cc1 10 µM, CCOC(=O)CC(=O)Nc1ccc(Br)cc1C(=O)O 1.58 µM, O=C(N[C@@H](Cc1ccccc1)C(=O)OCc1ccccc1)c1nc[nH]c1C(=O)N1CCN(c2ccccc2)CC1 10 µM, Oc1[nH]c2ccc(Br)cc2c1N=NC(=S)Nc1ccc(F)cc1 0.794 µM, C/C(N)=C(/C#N)C(=O)COC(=O)CCSc1ccccc1Cl 11.2 µM, O=C1C(CCCNC(=S)NCc2ccccc2)NC(=S)N1Cc1ccccc1 (stereo not given) 22.4 µM, CCCOc1ccc(-c2nnc(-c3ccco3)o2)cc1 4.47 µM, Cc1ccc(-c2cc(C(=O)N/N=C/C=C/c3ccccc3)n[nH]2)s1 3.98 µM, COC(=O)c1c(C)cc(C)n2c1nc1ccccc12 10 µM, COc1cccc(/C=N/Nc2nn3cnnc3c3ccccc23)c1O 1.41 µM, C=CCOc1c(CNc2cccc(C(=O)O)c2)cccc1OC 10 µM, Oc1c(Cl)cc(Cl)cc1/C=C/c1ccc2cccc(O)c2n1 2.51 µM, COc1ccccc1NC(=S)N(Cc1ccc(C)cc1)Cc1cccnc1 7.94 µM

Potency, inactive:
Oc1cc(O)c2c(c1)O[C@H](c1ccc(O)c(O)c1)[C@@H](O)C2

Potency, inconclusive:
Cc1[nH]c2ccccc2c1CCNS(=O)(=O)c1ccc(S(N)(=O)=O)cc1 2.82 µM [activator, single point], COC(=O)c1ccc(C)c(NS(=O)(=O)c2ccc(OC)cc2)c1 11.2 µM [inhibitor, single point], C=C(C)COc1ccc2c(CC)cc(=O)oc2c1 17.8 µM [activator, partial curve], CCCCN1C(=O)/C(=C2\SC(N3CCOCC3)=NC2=O)c2ccccc21 7.08 µM [activator, full curve, poor fit], CCCCCC(=O)N1CC2(CC(c3cccc(NC(=O)COc4ccc(Cl)cc4)c3)=NO2)C[C@@H]1C(N)=O (stereo not given in full) 12.6 µM [activator, single point], O=P(CCCCCCCCCP(=O)(c1ccccc1)c1ccccc1)(c1ccccc1)c1ccccc1 22.4 µM [inhibitor, single point], CC(=O)Nc1cccc(NC(=O)c2cc(-c3ccccn3)nc3ccc(Cl)cc23)c1 20 µM [inhibitor, partial curve, poor fit], COc1ccc(-c2csc(NC(=O)CCS(=O)(=O)c3ccccc3)n2)c(OC)c1 17.8 µM [activator, single point], CCOC(=O)C1CCCN(C(=O)CC(c2ccccc2)c2ccccc2)C1 (stereo not given) 12.6 µM [activator, single point], Cc1cccc(NC(=O)/C(C#N)=C\c2cc(C)n(-c3ccc(C(=O)O)cc3)c2C)c1 11.2 µM [activator, partial curve], COc1ccc(-n2c(Cn3nc(C(F)(F)F)cc3C)n[nH]c2=S)cc1 14.1 µM [inhibitor, single point], CN(C)c1ccc(/C=N\Nc2ccccn2)cc1 35.5 µM [inhibitor, single point], COc1ccc(-c2cc(C(F)(F)F)n3ncc(C(=O)N4CCc5ccccc5C4)c3n2)cc1 22.4 µM [activator, single point], COc1ccc(NC(=S)N(CCN2CCCCC2)Cc2ccco2)cc1 10 µM [inhibitor, partial curve], CC(=O)C1=C(C)NC(SCC(=O)c2ccc(Cl)cc2)=C(C#N)C1c1ccco1 (stereo not given) 14.1 µM [inhibitor, single point], CCOC(=O)N1CCC(Nc2c(N3CCN(c4cccc(C(F)(F)F)c4)CC3)c(=O)c2=O)CC1 15.8 µM [activator, single point], Nc1nc(Cl)cc(NCCc2ccc(O)cc2)n1 8.91 µM [activator, partial curve, poor fit], O=c1cc(-c2ccccc2)oc2c(O)c(O)ccc12 10 µM [activator, partial curve], COc1ccc(Oc2cn[nH]c2-c2ccc(O)cc2O)cc1 35.5 µM [inhibitor, single point], Cc1ccccc1-n1nc(CSc2nc3ccccc3[nH]2)c(-c2ccccc2)c1N 22.4 µM [inhibitor, single point], Cn1c(=O)c(C#N)c(-c2ccccc2)n2cnnc12 0.708 µM [inhibitor, single point], O=C(N/N=C/C(Cl)=C/c1ccccc1)c1ccccn1 35.5 µM [inhibitor, single point], CCCc1cc2c(cc1NC(=O)c1ccccc1F)OCO2 14.1 µM [activator, partial curve, poor fit], COc1ccc(-c2ccnc3nc(-n4cccc4)nn23)cc1 0.112 µM [activator, partial curve], COc1cc(/C=C/C(=O)Nc2ccc(C)cc2)cc(OC)c1OC 35.5 µM [activator, single point], Cc1ccc(S(=O)(=O)N2CCCOC2CNC(=O)C(=O)NCCC2=CCCCC2)cc1 (stereo not given) 14.1 µM [activator, partial curve], Cn1c(/C(C#N)=C/Nc2ccccn2)nc2ccccc21 15.8 µM [inhibitor, partial curve, poor fit], CSc1cccc(NC(=O)c2c(Cl)cnn2C)c1 35.5 µM [activator, single point], N#Cc1nc(COc2ccc(Cl)cc2)oc1N1CCN(Cc2ccccc2)CC1 28.2 µM [activator, single point], CCCn1c(=O)c(C(=O)Nc2cccc(C)c2)c(O)c2ccccc21 35.5 µM [inhibitor, single point], COc1ccc(-c2nnc(SCc3ncc(-c4ccccc4)o3)o2)cc1 15.8 µM [inhibitor, single point], CCC(CC)=N/N=C/c1c(O)n(CC)c2cc(C3=NNC(=O)CC3)ccc12 5.62 µM [inhibitor, partial curve, poor fit], Cc1cc2nc(N)sc2cc1C 3.98 µM [inhibitor, full curve, poor fit], Cc1ccc(NC(N)=S)cc1 15.8 µM [inhibitor, partial curve, poor fit], CCc1ccc(NC(=O)C2CCCN(S(=O)(=O)c3ccc4c(c3)CCCN4C(C)=O)C2)cc1 (stereo not given) 35.5 µM [activator, single point], Cn1c(SCc2ccccc2)nnc1-c1ccc(O)cc1 31.6 µM [activator, single point], COc1ccc(-c2noc(-c3ccc(C)cc3)n2)cc1 25.1 µM [inhibitor, single point], CCOC(=O)c1cccc(NC(=O)CCS(=O)(=O)c2cccc3nsnc23)c1 8.91 µM [activator, partial curve], O=C(CSc1nc2ccccc2o1)N1CCN(S(=O)(=O)c2ccc3ccccc3c2)CC1 35.5 µM [activator, single point]
